SMILES strings stand for the structures. Where a name gives a salt, the structure may show the parent alone. This is one part of the list. Many values rest on one well or one pass, so single values are uncertain.

The assay deals with Reh. Nature of the assay: S-phase gammaH2AX median, Z-score vs plate median (drug alone); higher = more S-phase DNA damage. Conditions: MK1775 concentration 0 nM; 10 µM; 4 h.
Turning to `Nc1nc2ccc(OC(F)(F)F)cc2s1` [Riluzole], the “S-phase gammaH2AX median (Z-score)” value is -0.254.

In the case of `CN1CCc2c(cc(O)c(O)c2Cl)C(c2cccc(Cl)c2)C1` (centres undefined), the “S-phase gammaH2AX median (Z-score)” value is -0.654.

Consider `O=C(O)c1cc(=O)cc(C(=O)O)[nH]1` [Chelidamic acid], for which the “S-phase gammaH2AX median (Z-score)” value is -0.0194.

For `CNC(=O)c1cc(Oc2ccc(NC(=O)Nc3cc(C(C)(C)C)nn3-c3ccc4ncccc4c3)c(F)c2)ccn1` [DCC-2036 (Rebastinib)], the “S-phase gammaH2AX median (Z-score)” value was -0.102.

Regarding `C/C=C1\C(=O)C[C@H]2[C@@H]3CCC4=CC(=O)CC[C@]4(C)[C@H]3CC[C@]12C` [(Z)-Gugglesterone], the “S-phase gammaH2AX median (Z-score)” value is -0.0567.

Turning to `CC(C)C[C@H](NC(=O)[C@H](O)[C@H](N)Cc1ccccc1)C(=O)O` [Epibestatin hydrochloride], the “S-phase gammaH2AX median (Z-score)” value is -0.0441.

With `CNC(=O)c1cc(Oc2ccc(NC(=O)Nc3ccc(Cl)c(C(F)(F)F)c3)c(F)c2)ccn1` [Regorafenib (BAY 73-4506)], the “S-phase gammaH2AX median (Z-score)” value is -0.0677.

On to `O=C(Nc1ccccc1-c1cn2c(CN3CCNCC3)csc2n1)c1cnc2ccccc2n1`, for which the “S-phase gammaH2AX median (Z-score)” value was -0.205.

With `COc1ccc2c(c1OC)C(=O)O[C@@H]2[C@H]1c2c(cc3c(c2OC)OCO3)CCN1C` [Noscapine hydrchloride], the “S-phase gammaH2AX median (Z-score)” value was -0.132.

Regarding `CCCCCCCCCCCCCCCC(=O)OC(CC(=O)O)C[N+](C)(C)C` (racemic) [Palmitoyl-DL-Carnitine chloride], the “S-phase gammaH2AX median (Z-score)” value was -0.168.

With `C=CCc1cccc(/C=N/NC(=O)CN2CCN(Cc3ccccc3)CC2)c1O`, the “S-phase gammaH2AX median (Z-score)” value came to 1.09.

`O=C(O)C1CCCNC1` (centres undefined) [(?)-Nipecotic acid]: the “S-phase gammaH2AX median (Z-score)” value is -0.0252.

Turning to `CC(Oc1ccc(Oc2cnc3ccc(Cl)cc3n2)cc1)C(=O)O` (centres undefined), the “S-phase gammaH2AX median (Z-score)” value worked out at 5.87.

As for `CN(C)C(=O)C(CCN1CCC(O)(c2ccc(Cl)cc2)CC1)(c1ccccc1)c1ccccc1` [Loperamide hydrochloride], the “S-phase gammaH2AX median (Z-score)” value is -0.11.

On to `N=C(N)NCCSSCCNC(=N)N` [Guanidinoethyl disulfide dihydrobromide], for which the “S-phase gammaH2AX median (Z-score)” value came to 0.139.

Take `CC[N+](CC)(CC)CCOc1ccc(/C=C/c2ccccc2)cc1`: the “S-phase gammaH2AX median (Z-score)” value is -0.0118.

In the case of `COc1cc2c(N3CCN(C(=O)Nc4ccc(OC(C)C)cc4)CC3)ncnc2cc1OCCCN1CCCCC1` [Tandutinib (MLN518)], the “S-phase gammaH2AX median (Z-score)” value was -0.112.

On to `Cc1cc(O)c2c(c1)C(=O)c1cccc(O)c1C2=O` [Chrysophanic acid (Chrysophanol)], for which the “S-phase gammaH2AX median (Z-score)” value stood at 0.23.

Consider `COc1cc(C(=O)NC(=S)Nc2cccc(NC(=O)c3ccccc3)c2)cc(OC)c1OC`, for which the “S-phase gammaH2AX median (Z-score)” value is -0.0653.

`NC(N)=NC(N)=Nc1cccc(Cl)c1` [1-(m-Chlorophenyl)-biguanide hydrochloride]: the “S-phase gammaH2AX median (Z-score)” value was found to be 0.0505.

`CCOc1ccc(Nc2nc(-c3c(C)nc4ccccn34)cs2)cc1`: the “S-phase gammaH2AX median (Z-score)” value was -0.106.

Turning to `NC[C@@H]1O[C@H](O[C@H]2[C@@H](O)[C@H](O[C@@H]3[C@@H](O)[C@H](N)C[C@H](N)[C@H]3O[C@H]3O[C@H](CO)[C@@H](O)[C@H](O)[C@H]3N)O[C@@H]2CO)[C@H](N)[C@@H](O)[C@@H]1O` [Paromomycin sulfate], the “S-phase gammaH2AX median (Z-score)” value is 0.201.

As to `CC[C@]1(O)C[C@H]2CN(CCc3c([nH]c4ccccc34)[C@@](C(=O)OC)(c3cc4c(cc3OC)N(C=O)[C@H]3[C@@](O)(C(=O)OC)[C@H](OC(C)=O)[C@]5(CC)C=CCN6CC[C@]43[C@@H]65)C2)C1` [Vincristine], the “S-phase gammaH2AX median (Z-score)” value worked out at 0.191.

`CC[C@]1(O)C[C@H]2CN(CCc3c([nH]c4ccccc34)[C@@](C(=O)OC)(c3cc4c(cc3OC)N(C=O)[C@H]3[C@@](O)(C(=O)OC)[C@H](OC(C)=O)[C@]5(CC)C=CCN6CC[C@]43[C@@H]65)C2)C1` [Vincristine sulfate]: the “S-phase gammaH2AX median (Z-score)” value came to 0.194.

For `Cc1cccc(C)c1OCC(C)N` (centres undefined) [Mexiletene hydrochloride], the “S-phase gammaH2AX median (Z-score)” value was found to be 0.0189.

For the compound `CN[C@@H](C)C(=O)N[C@H]1CN(C(=O)CC(C)C)CC[C@H]2CC[C@@H](C(=O)NC(c3ccccc3)c3ccccc3)N2C1=O`, the “S-phase gammaH2AX median (Z-score)” value is -0.0769.

`COc1ccccc1N1CCN(CCCCN2C(=O)c3ccccc3C2=O)CC1` [NAN-190 hydrobromide]: the “S-phase gammaH2AX median (Z-score)” value was -0.173.

With `Oc1ccc(/C=C/c2cc(O)cc(O)c2)cc1` [Resveratrol], the “S-phase gammaH2AX median (Z-score)” value is -0.215.

As to `CCN(CC)CCNC(=O)c1c(C)[nH]c(/C=C2\C(=O)Nc3ccc(F)cc32)c1C` [Sunitinib Malate (Sutent)], the “S-phase gammaH2AX median (Z-score)” value was -0.0336.

In the case of `COc1ccc(/C=C/C(=O)Nc2ccccc2C(=O)O)cc1OC` [Tranilast], the “S-phase gammaH2AX median (Z-score)” value is -0.447.

Take `CCOc1cc2ncc(C#N)c(Nc3ccc(F)c(Cl)c3)c2cc1NC(=O)/C=C/CN(C)C` [Pelitinib (EKB-569)]: the “S-phase gammaH2AX median (Z-score)” value worked out at 0.454.

For `CCCc1c(-c2ccc(O)cc2)nn(-c2ccc(O)cc2)c1-c1ccc(O)cc1` [1,3,5-tris(4-hydroxyphenyl)-4-propyl-1H-pyrazole], the “S-phase gammaH2AX median (Z-score)” value came to 0.0598.

With `N#C/C(=C\c1c[nH]c2ccccc12)C(=O)c1ccc(O)c(O)c1` [Tyrphostin AG 808], the “S-phase gammaH2AX median (Z-score)” value was -0.507.

`Cn1cnc2c1c(=O)[nH]c(=O)n2C` [Theobromine]: the “S-phase gammaH2AX median (Z-score)” value came out at 0.16.

For `NCCCNCCCCNCCCN` [Spermine tetrahydrochloride], the “S-phase gammaH2AX median (Z-score)” value is -0.0868.

As to `CCN(CC)CCNC(=O)c1cc(Cl)c(N)cc1OC` [Metoclopramide hydrochloride], the “S-phase gammaH2AX median (Z-score)” value was determined as 0.00946.

Regarding `CN(C)C/C=C(/c1ccc(Br)cc1)c1cccnc1` [Zimelidine dihydrochloride], the “S-phase gammaH2AX median (Z-score)” value is -0.714.

For `NC/C=C/C(=O)O` [(E)-4-amino-2-butenoic acid], the “S-phase gammaH2AX median (Z-score)” value worked out at 0.0267.

As to `CCN(CC)CCOC(=O)c1cc(Cl)c(N)cc1OC` [SDZ-205,557 hydrochloride], the “S-phase gammaH2AX median (Z-score)” value is -0.113.

Regarding `CC(=O)N[C@@H](Cc1c[nH]c2ccccc12)C(=O)OCc1cc(C(F)(F)F)cc(C(F)(F)F)c1`, the “S-phase gammaH2AX median (Z-score)” value was -0.0388.

As for `CO[C@H]1/C=C\C=C(/C)C(=O)NC2=CC(=O)C(NCCN(C)C)=C(C[C@@H](C)C[C@H](OC)[C@H](O)[C@@H](C)/C=C(\C)[C@@H]1OC(N)=O)C2=O` [17-DMAG HCl (Alvespimycin)], the “S-phase gammaH2AX median (Z-score)” value was -0.0622.

Take `CN(C)CCC=C1c2ccccc2COc2ccccc21` [Doxepin hydrochloride]: the “S-phase gammaH2AX median (Z-score)” value is -0.00945.

Consider `CC(C)[N+](C)(CCOC(=O)C1c2ccccc2Oc2ccccc21)C(C)C` [Propantheline bromide], for which the “S-phase gammaH2AX median (Z-score)” value stood at 0.0639.

As to `CCN(c1nc(N)c(C(=O)NC(=N)N)nc1Cl)C(C)C` [5-(N-Ethyl-N-isopropyl)amiloride], the “S-phase gammaH2AX median (Z-score)” value was 0.691.

As for `O=C(O)Cc1c[nH]c2ccc(O)cc12` [5-Hydroxyindolacetic acid], the “S-phase gammaH2AX median (Z-score)” value is -0.11.

Take `C[S+]([O-])c1ccc(-c2nc(-c3ccc(F)cc3)c(-c3ccncc3)[nH]2)cc1` (centres undefined): the “S-phase gammaH2AX median (Z-score)” value is -0.0205.

Regarding `CN[C@H](CC(=O)O)C(=O)O` [N-Methyl-D-aspartic acid], the “S-phase gammaH2AX median (Z-score)” value is -0.0071.

As to `CN1CCN(C2Cc3ccccc3Sc3ccc(Cl)cc32)CC1` (centres undefined) [(?)-Octoclothepin maleate], the “S-phase gammaH2AX median (Z-score)” value was -0.0568.

Regarding `Cn1c(=O)c2[nH]c(-c3ccccc3)nc2n(C)c1=O` [1,3-Dimethyl-8-phenylxanthine], the “S-phase gammaH2AX median (Z-score)” value was 0.0828.

Consider `C#Cc1cccc(Nc2ncnc3cc(OCCOC)c(OCCOC)cc23)c1` [Erlotinib HCl], for which the “S-phase gammaH2AX median (Z-score)” value was 0.0754.

In the case of `OC[C@H]1NC[C@H](O)[C@@H](O)[C@@H]1O` [1-Deoxynojirimycin hydrochloride], the “S-phase gammaH2AX median (Z-score)” value is -0.0819.

Regarding `CC(C)C[C@@H](C(=O)N[C@H](C(=O)OC1CCCC1)c1ccccc1)[C@H](O)C(=O)NO` [Tosedostat (CHR2797)], the “S-phase gammaH2AX median (Z-score)” value was found to be 0.08.

Regarding `C[C@H]1c2cccc(O)c2C(=O)C2=C(O)[C@]3(O)C(=O)C(C(N)=O)=C(O)[C@@H](N(C)C)[C@@H]3[C@@H](O)[C@@H]21` [Doxycycline hydrochloride], the “S-phase gammaH2AX median (Z-score)” value is -0.126.

For `C[C@](N)(Cc1ccc(O)c(O)c1)C(=O)O` [L-alpha-Methyl DOPA], the “S-phase gammaH2AX median (Z-score)” value was -0.026.

`c1cnc(N2CCN(Cc3ccc4c(c3)OCO4)CC2)nc1` [Piribedil maleate]: the “S-phase gammaH2AX median (Z-score)” value is 0.00473.

With `O=C(O)CNC(=O)C(CS)Cc1ccccc1` (racemic) [DL-Thiorphan], the “S-phase gammaH2AX median (Z-score)” value is 0.194.

`Fc1ccc(CN(C2=NCCN2)c2c(Cl)cccc2Cl)cc1` [IMID-4F hydrochloride]: the “S-phase gammaH2AX median (Z-score)” value was 0.113.

As to `Cc1nn(-c2ccccc2)c(C)c1C=NN1CCN(Cc2ccccc2)CC1`, the “S-phase gammaH2AX median (Z-score)” value is -0.0205.

As for `Cc1ccc(NC(=O)c2ccc(CN3CCN(C)CC3)cc2)cc1Nc1nccc(-c2cccnc2)n1` [Imatinib (Gleevec)], the “S-phase gammaH2AX median (Z-score)” value was -0.0104.

For the compound `OC[C@H]1O[C@@H](n2cnc3c(NC4CCCC4)ncnc32)[C@H](O)[C@@H]1O` [N6-Cyclopentyladenosine], the “S-phase gammaH2AX median (Z-score)” value is -0.0252.

As to `C[N+](C)(C)CC=O` [Betaine aldehyde chloride], the “S-phase gammaH2AX median (Z-score)” value was 0.0155.

Take `CCCn1c(=O)[nH]c(=O)c2[nH]cnc21` [3-n-Propylxanthine]: the “S-phase gammaH2AX median (Z-score)” value is 0.111.

For `Cn1c(=O)[nH]c2ncn(C)c2c1=O` [1,7-Dimethylxanthine], the “S-phase gammaH2AX median (Z-score)” value was found to be 0.0409.

Consider `C1COC(NC(C2CC2)C2CC2)=N1` [Rilmenidine hemifumarate], for which the “S-phase gammaH2AX median (Z-score)” value came to 0.1.

`COc1cc(OC2CCN(C)CC2)ccc1Nc1ncc2c(n1)n(C1CCCC1)c(=O)n2C`: the “S-phase gammaH2AX median (Z-score)” value came to 0.0978.

For `CC(NC(=O)c1ccccc1/N=C/c1c(O)ccc2ccccc12)c1ccccc1` (centres undefined) [Sirtinol], the “S-phase gammaH2AX median (Z-score)” value is -0.0313.

For `NC1CCN(c2cccc(Cl)n2)CC1`, the “S-phase gammaH2AX median (Z-score)” value is 0.04.

For the compound `NC(=NCCC[C@H](N)C(=O)O)NO` [NG-Hydroxy-L-arginine acetate], the “S-phase gammaH2AX median (Z-score)” value was 0.0661.

Take `Cc1ccc(S(=O)(=O)N[C@@H](Cc2ccccc2)C(=O)CCl)cc1` [N-p-Tosyl-L-phenylalanine chloromethyl ketone]: the “S-phase gammaH2AX median (Z-score)” value was 1.17.

On to `CC(C)NCC(O)COc1ccc(CCOCC2CC2)cc1` (centres undefined) [Betaxolol hydrochloride], for which the “S-phase gammaH2AX median (Z-score)” value is 0.0291.

In the case of `CCOC(=O)c1cnc2c(cnn2CC)c1NN=C(C)C` [Etazolate hydrochloride], the “S-phase gammaH2AX median (Z-score)” value was -0.0724.

Turning to `COc1cc2ncnc(-n3nc(-c4ccccn4)nc3N)c2cc1OC`, the “S-phase gammaH2AX median (Z-score)” value is -0.12.

As for `NCCCCNS(=O)(=O)c1ccc2c(Cl)cccc2c1`, the “S-phase gammaH2AX median (Z-score)” value turned out to be 0.035.

In the case of `COc1cc2ncnc(Nc3cccc(Cl)c3)c2cc1OC` [Tyrphostin AG 1478], the “S-phase gammaH2AX median (Z-score)” value turned out to be 0.601.

Values taken from the supplement of paper PMC5355238.
